This passage reports EC50 results from patent publication US12447171B2, “Azacitidine in combination with venetoclax, gilteritinib, midostaurin or other compounds for treating leukemia or myelodysplastic syndrome” (CELGENE QUANTICEL RESEARCH, INC., priority 2019, dated 2025).

Usually EC50 stands for the concentration giving half of the maximal effect. Read a low EC50 as a more potent agent.

Some test systems named below: BaF-FLT3(WT); BaF-FLT3(D835Y); BaF-FLT3-ITD.
What all share (experiment): Cell viability assay (Cell Titer-Glo), BaF3 cells expressing FLT3
Holding throughout (format): cell-based
What all share (conditions): Mus musculus
In general terms: Cellular ATP, detected with luciferase, serves as a proxy for viable cell number.

Turning to `CO[C@@H]1[C@H](N(C)C(=O)c2ccccc2)C[C@H]2O[C@]1(C)n1c3ccccc3c3c4c(c5c6ccccc6n2c5c31)C(=O)NC4` [Midostaurin], the EC50 in the experiment with BaF-FLT3(WT) turned out to be 23 nM; in the experiment with BaF-FLT3(D835Y), 5.4 nM; in the experiment on BaF-FLT3-ITD, 5.5 nM.
